{"source": "patent US10779537B2", "about": "“1H-pyrrolopyridine compound, N-oxide thereof or salt thereof, agricultural and horticultural insecticide comprising the compound, and method for using the insecticide” (Nihon Nohyaku Co., Ltd., priority 2016, dated 2020)", "note": "Some results were stated once for a whole list of compounds, not compound by compound."}
{"system": "Myzus persicae", "test": "Test for control efficacy on Myzus persicae (foliar application, potted Chinese cabbage)", "assay_type": "in vivo", "conditions": "500 ppm dispersion in water, foliar application to potted Chinese cabbage, 6 days after application"}
{"smiles": "CCS(=O)(=O)c1cc(C(F)(F)F)cnc1-c1[nH]c2cc(C(F)(F)F)cnc2c1F", "note": "[Compound 1-75, 2-(3-ethylsulfonyl-5-trifluoromethylpyridin-2-yl)-3-fluoro-6-trifluoromethyl-1H-pyrrolo[3,2-b]pyridine]", "control efficacy (control rate)": "A (the control rate is 100%)"}
{"smiles": "CCS(=O)(=O)c1cc(C(F)(F)F)cnc1-c1[nH]c2cc(C(F)(F)F)cnc2c1Cl", "note": "[Compound 1-76, 2-(3-ethylsulfonyl-5-trifluoromethylpyridin-2-yl)-3-chloro-6-trifluoromethyl-1H-pyrrolo[3,2-b]pyridine]", "control efficacy (control rate)": "A (the control rate is 100%)"}
{"smiles": "CCS(=O)(=O)c1cc(C(F)(F)F)cnc1-c1[nH]c2cc(C(F)(F)F)cnc2c1Br", "note": "[Compound 1-77, 2-(3-ethylsulfonyl-5-trifluoromethylpyridin-2-yl)-3-bromo-6-trifluoromethyl-1H-pyrrolo[3,2-b]pyridine]", "control efficacy (control rate)": "A (the control rate is 100%)"}
{"smiles": "CCS(=O)(=O)c1cc(C(F)(F)F)cnc1-c1c(Cl)c2ncc(C(F)(F)F)cc2n1C(C)=O", "note": "[Compound 3-3, 1-acetyl-2-(3-ethylsulfonyl-5-trifluoromethylpyridin-2-yl)-3-chloro-6-trifluoromethyl-1H-pyrrolo[3,2-b]pyridine]", "control efficacy (control rate)": "A (the control rate is 100%)"}
